Source: article PMC7937683
No constants are given. Whether binding was seen depends on the method and setting. Binding seen in cells or lysates may run through a third protein.

By UniProt entry, the sequences of proteins in these tests, tags left out. Residues count along the entry.
UniProt Q14126, residues 50-1118: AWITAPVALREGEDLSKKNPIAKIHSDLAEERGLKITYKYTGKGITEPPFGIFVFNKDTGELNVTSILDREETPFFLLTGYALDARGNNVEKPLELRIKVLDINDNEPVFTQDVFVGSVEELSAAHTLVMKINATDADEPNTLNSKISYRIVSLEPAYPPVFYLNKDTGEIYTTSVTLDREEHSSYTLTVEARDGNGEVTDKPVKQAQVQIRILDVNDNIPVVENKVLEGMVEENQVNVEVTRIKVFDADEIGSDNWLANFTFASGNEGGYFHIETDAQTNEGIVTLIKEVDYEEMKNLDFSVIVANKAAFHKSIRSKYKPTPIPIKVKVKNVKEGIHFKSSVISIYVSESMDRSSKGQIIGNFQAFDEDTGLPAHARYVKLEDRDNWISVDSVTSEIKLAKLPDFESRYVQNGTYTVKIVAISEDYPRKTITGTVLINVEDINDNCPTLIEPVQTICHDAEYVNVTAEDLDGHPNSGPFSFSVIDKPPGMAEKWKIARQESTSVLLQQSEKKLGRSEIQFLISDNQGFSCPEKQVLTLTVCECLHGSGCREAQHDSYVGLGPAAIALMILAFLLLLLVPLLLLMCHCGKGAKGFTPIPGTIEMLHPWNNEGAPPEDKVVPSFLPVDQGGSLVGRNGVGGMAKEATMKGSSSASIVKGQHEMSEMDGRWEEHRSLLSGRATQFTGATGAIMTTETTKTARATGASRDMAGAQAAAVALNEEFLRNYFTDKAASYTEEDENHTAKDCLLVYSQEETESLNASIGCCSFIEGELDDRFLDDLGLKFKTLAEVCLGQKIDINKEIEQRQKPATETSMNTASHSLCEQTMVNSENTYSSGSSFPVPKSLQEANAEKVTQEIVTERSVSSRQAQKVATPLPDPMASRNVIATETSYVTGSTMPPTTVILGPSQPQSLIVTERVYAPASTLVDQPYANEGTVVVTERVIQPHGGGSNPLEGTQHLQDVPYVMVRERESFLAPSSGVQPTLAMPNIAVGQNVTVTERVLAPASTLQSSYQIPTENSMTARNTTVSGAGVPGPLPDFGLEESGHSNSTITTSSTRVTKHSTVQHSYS
UniProt P27361: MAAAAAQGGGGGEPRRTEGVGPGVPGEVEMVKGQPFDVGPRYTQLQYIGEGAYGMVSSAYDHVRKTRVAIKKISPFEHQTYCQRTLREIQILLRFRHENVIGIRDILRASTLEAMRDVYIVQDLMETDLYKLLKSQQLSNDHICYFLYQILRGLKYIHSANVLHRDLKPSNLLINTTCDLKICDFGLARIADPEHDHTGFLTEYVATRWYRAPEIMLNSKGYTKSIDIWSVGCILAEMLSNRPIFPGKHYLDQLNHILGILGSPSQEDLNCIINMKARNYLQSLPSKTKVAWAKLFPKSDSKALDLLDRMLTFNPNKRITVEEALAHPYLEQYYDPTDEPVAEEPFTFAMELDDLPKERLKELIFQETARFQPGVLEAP
UniProt P28482: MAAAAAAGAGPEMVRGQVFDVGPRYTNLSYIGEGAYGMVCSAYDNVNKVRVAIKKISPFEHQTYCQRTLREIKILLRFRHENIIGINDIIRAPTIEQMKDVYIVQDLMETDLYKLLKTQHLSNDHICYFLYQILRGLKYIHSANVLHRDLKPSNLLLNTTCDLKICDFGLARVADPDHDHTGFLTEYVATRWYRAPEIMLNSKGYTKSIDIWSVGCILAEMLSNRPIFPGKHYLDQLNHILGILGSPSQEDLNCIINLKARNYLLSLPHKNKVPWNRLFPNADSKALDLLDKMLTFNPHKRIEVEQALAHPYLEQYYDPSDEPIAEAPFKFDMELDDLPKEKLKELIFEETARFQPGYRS

molecular target: desmoglein-2 (human (endogenous in SNU308 and JCRB1033)) (UniProt Q14126); assay: co-IP; endogenous proteins in RIPA lysates of GBC cells (SNU308, JCRB1033); IP with anti-Dsg2 antibody (named for Fig. 4b and 5a, not named for Fig. 4a and 4d), protein A or G agarose, western blot; also after FAK siRNA

binding, no binding:
ERK1 (from UniProt P27361 1-379)
ERK2 (from UniProt P28482 1-360)
epidermal growth factor receptor (from UniProt P00533 25-1210)
